According to patent US20210321645A1, “STABILIZER FOR PYRROLOQUINOLINE QUINONE, COMPOSITION COMPRISING THE SAME, AND METHOD OF STABILIZATION” (Mitsubishi Gas Chemical Company, Inc., priority 2018, published 2021):
The name of at least one read-out is uncertain. Peptide text beside a SMILES is read from it.

Experiment: Accelerated storage test of beverages, BioPQQ recovery by HPLC
Format: physicochemical
Conditions: sweetener used alone; no results are shown
Procedure: Analysis conditions of pyrroloquinoline quinone disodium salt
HPLC Conditions: • Shimadzu LC-2010 • Column: YMC-Pack ODS-A • Detection wavelength: 259 nm • Mobile phase: 30 mM acetic acid-70 mM ammonium acetate • Column temperature: 40° C.
(Accelerated Storage Test)
The sample of Example 1 was stored under the conditions of 60° C. for 2 weeks, which are equivalent to those of room temperature for 2 years. When the stored sample was subjected to HPLC, 97% of BioPQQ was recovered.

**Q.** For `COC(=O)[C@H](Cc1ccccc1)NC(=O)[C@@H](N)CC(=O)O` [aspartame] (H-Asp-Phe-OMe), which “recovery of pyrroloquinoline quinone” value is on record?
**A.** decreased
